# These are yes or no findings as the source states them, for the method shown. Binding seen in cells or lysates may run through a third protein. Some entries that bind do so weakly or less than the wild type.
# Amino acid sequences for entries named in this document (tags omitted).
# UniProt P35820: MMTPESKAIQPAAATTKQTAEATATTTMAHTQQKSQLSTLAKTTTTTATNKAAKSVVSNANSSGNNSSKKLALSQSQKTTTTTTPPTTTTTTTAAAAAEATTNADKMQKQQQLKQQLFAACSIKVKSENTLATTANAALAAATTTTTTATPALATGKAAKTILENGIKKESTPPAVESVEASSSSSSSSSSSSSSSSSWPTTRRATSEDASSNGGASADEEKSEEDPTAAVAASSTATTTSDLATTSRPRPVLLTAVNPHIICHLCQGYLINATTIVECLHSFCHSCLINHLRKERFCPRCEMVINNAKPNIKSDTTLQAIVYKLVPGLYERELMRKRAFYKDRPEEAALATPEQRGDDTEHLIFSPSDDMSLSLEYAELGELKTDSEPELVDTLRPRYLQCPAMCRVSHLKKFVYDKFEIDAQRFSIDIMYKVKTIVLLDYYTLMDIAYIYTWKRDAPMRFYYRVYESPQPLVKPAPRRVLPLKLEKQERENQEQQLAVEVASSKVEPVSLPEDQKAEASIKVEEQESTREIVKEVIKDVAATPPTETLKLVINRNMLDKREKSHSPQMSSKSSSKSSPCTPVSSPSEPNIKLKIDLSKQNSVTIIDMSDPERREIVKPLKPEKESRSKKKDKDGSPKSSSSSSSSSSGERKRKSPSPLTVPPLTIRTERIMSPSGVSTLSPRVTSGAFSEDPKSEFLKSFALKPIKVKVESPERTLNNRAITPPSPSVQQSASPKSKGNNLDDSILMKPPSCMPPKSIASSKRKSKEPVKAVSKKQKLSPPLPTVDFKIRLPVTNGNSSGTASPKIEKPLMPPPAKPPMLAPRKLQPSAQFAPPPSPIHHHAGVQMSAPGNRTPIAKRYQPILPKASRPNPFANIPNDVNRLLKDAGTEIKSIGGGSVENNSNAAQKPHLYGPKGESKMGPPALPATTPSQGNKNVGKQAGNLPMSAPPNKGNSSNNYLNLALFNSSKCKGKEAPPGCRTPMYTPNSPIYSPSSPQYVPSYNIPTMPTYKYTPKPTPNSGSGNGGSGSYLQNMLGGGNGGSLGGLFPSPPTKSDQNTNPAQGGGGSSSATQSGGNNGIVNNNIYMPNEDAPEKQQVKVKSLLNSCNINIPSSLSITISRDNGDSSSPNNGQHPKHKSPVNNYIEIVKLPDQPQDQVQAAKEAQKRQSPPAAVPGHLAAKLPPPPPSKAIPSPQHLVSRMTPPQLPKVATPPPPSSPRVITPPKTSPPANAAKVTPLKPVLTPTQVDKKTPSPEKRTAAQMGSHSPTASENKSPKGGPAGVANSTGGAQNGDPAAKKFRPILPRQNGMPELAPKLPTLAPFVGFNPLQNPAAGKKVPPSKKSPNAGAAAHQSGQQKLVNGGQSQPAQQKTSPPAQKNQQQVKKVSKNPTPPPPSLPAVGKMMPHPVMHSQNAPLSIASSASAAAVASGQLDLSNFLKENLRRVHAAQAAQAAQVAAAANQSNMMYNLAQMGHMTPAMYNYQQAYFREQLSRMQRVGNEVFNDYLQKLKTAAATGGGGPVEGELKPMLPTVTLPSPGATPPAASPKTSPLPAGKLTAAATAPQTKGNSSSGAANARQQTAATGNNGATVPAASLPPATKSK
# T1: RING1 [the product of Sex combs extra (Sce) gene] (D. melanogaster (endogenous in embryos)) (UniProt Q9VB08)
# T1 sequence: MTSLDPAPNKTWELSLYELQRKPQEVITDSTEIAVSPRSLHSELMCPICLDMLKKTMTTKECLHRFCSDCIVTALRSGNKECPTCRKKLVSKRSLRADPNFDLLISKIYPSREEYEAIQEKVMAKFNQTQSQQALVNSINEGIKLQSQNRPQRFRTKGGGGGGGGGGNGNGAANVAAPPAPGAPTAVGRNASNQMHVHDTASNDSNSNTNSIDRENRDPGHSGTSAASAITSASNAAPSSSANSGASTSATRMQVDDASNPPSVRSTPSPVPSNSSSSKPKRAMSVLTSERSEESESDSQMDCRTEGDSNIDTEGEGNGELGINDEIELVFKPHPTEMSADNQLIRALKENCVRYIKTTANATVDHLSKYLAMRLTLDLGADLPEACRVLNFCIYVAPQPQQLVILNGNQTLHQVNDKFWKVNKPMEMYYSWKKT
# Target: T1, RING1 [the product of Sex combs extra (Sce) gene] (D. melanogaster (endogenous in embryos))
# Test: co-IP; total nuclear protein extracts of embryos (wild type; Siesta-Strep; RYBP-KO, Siesta-Strep), dialysed against 25 mM Hepes-KOH pH 7.6, 0.1 M KCl; anti-RING1 cross-linked to Dynabeads or Strep-Tactin Sepharose, 0.02% NP-40, overnight at 4°C; Western blot
row,Molecule,binding
1,Posterior sex combs (Psc) (from UniProt P35820 1-1601),binds
2,"Polycomb (Pc) (protein, UniProt P26017 1-390) MTGRGKGSKGKLGRDNATDDPVDLVYAAEKIIQKRVKKGVVEYRVKWKGWNQRYNTWEPEVNILDRRLIDIYEQTNKSSGTPSKRGIKKKEKEPDPEPESEEDEYTFTENDVDTHQATTSSATHDKESKKEKKHHHHHHHHHHIKSERNSGRRSESPLTHHHHHHHHESKRQRIDHSSSSNSSFTHNSFVPEPDSNSSSSEDQPLIGTKRKAEVLKESGKIGVTIKTSPDGPTIKPQPTQQVTPSQQQPFQDQQQAEKIASEAATQLKSEQQATPLATEAINTTPAESGAEEEEVANEEGNQQAPQVPSENNNIPKPCNNLAINQKQPLTPLSPRALPPRFWLPAKCNISNRVVITDVTVNLETVTIRECKTERGFFRERDMKGDSSPVA",binds
